Measurements from patent publication US6491729B1.

Assays:
[1] = yellowness index, whiteness index and Lab values of undyed fabric, Example 9; conditions: gray polyester goods; dry-cleaned two times
[2] = as above; conditions: gray cotton goods
[3] = tensile strength (load weight, displacement, stress, specific stress, strain at the maximum load point); conditions: undyed fabric of gray cotton goods
[4] = as above; conditions: dyed fabric of wool
[5] = bursting strength and softness of fabric; conditions: dyed fabric of polyester/cotton

ClC(Cl)=C(Cl)Cl [perchloroethylene]
c [1]: 6.6 | h [1]: 271.58 | ΔE [1]: 4.47 | ΔL [1]: −4.18 | Δa [1]: 0.31 | Δb [1]: 1.56 | Δc [1]: −1.54 | Δh [1]: 0.38 | L ([2]; dry-cleaned five times): 88.27 | a ([2]; dry-cleaned five times): −0.14 | b ([2]; dry-cleaned five times): 1.8 | c ([2]; dry-cleaned five times): 1.81 | h ([2]; dry-cleaned five times): 94.57 | ΔE ([2]; dry-cleaned five times): 0.27 | ΔL ([2]; dry-cleaned five times): 0.15 | Δa ([2]; dry-cleaned five times): 0.14 | Δb ([2]; dry-cleaned five times): 0.19 | Δc ([2]; dry-cleaned five times): 0.17 | Δh ([2]; dry-cleaned five times): −0.16 | L ([2]; dry-cleaned one time): 87.59 | a ([2]; dry-cleaned one time): −0.17 | b ([2]; dry-cleaned one time): 1.81 | c ([2]; dry-cleaned one time): 1.81 | h ([2]; dry-cleaned one time): 95.28 | ΔE ([2]; dry-cleaned one time): 0.58 | ΔL ([2]; dry-cleaned one time): −0.54 | Δa ([2]; dry-cleaned one time): 0.11 | Δb ([2]; dry-cleaned one time): 0.19 | Δc ([2]; dry-cleaned one time): 0.18 | Δh ([2]; dry-cleaned one time): −0.14 | L ([2]; dry-cleaned two times): 88.43 | a ([2]; dry-cleaned two times): −0.16 | b ([2]; dry-cleaned two times): 1.81 | c ([2]; dry-cleaned two times): 1.81 | h ([2]; dry-cleaned two times): 95.15 | ΔE ([2]; dry-cleaned two times): 0.37 | ΔL ([2]; dry-cleaned two times): 0.3 | Δa ([2]; dry-cleaned two times): 0.12 | Δb ([2]; dry-cleaned two times): 0.19 | Δc ([2]; dry-cleaned two times): 0.17 | Δh ([2]; dry-cleaned two times): −0.14 | displacement ([3]; dry-cleaned five times): 15.89 mm | load weight ([3]; dry-cleaned five times): 23.13 kg | specific stress ([3]; dry-cleaned five times): 12.13 kg/L | strain ([3]; dry-cleaned five times): 7.94% | stress ([3]; dry-cleaned five times): 4.63 kg/mm^2 | displacement ([3]; dry-cleaned one time): 48.52 mm | load weight ([3]; dry-cleaned one time): 31.94 kg | specific stress ([3]; dry-cleaned one time): 31.94 kg/L | strain ([3]; dry-cleaned one time): 9.26% | stress ([3]; dry-cleaned one time): 6.39 kg/mm^2 | displacement ([3]; dry-cleaned two times): 16.54 mm | load weight ([3]; dry-cleaned two times): 21.71 kg | specific stress ([3]; dry-cleaned two times): 21.71 kg/L | strain ([3]; dry-cleaned two times): 8.27% | stress ([3]; dry-cleaned two times): 4.34 kg/mm^2 | displacement ([4]; dry-cleaned five times): 75.31 mm | load weight ([4]; dry-cleaned five times): 13.92 kg | specific stress ([4]; dry-cleaned five times): 13.92 kg/L | strain ([4]; dry-cleaned five times): 37.66% | stress ([4]; dry-cleaned five times): 0.7 kg/mm^2 | displacement ([4]; dry-cleaned one time): 81.25 mm | load weight ([4]; dry-cleaned one time): 16.65 kg | specific stress ([4]; dry-cleaned one time): 16.65 kg/L | strain ([4]; dry-cleaned one time): 40.62% | stress ([4]; dry-cleaned one time): 0.83 kg/mm^2 | displacement ([4]; dry-cleaned two times): 69.71 mm | load weight ([4]; dry-cleaned two times): 15.38 kg | specific stress ([4]; dry-cleaned two times): 15.38 kg/L | strain ([4]; dry-cleaned two times): 34.85% | stress ([4]; dry-cleaned two times): 0.77 kg/mm^2 | bursting strength ([5]; dry-cleaned five times): 11.5 kg · f/cm^2 | bursting strength percentage of variation ([5]; dry-cleaned five times): −4.17% | softness ([5]; dry-cleaned five times): 2.7 cm | softness percentage of variation ([5]; dry-cleaned five times): 2.66% | bursting strength ([5]; dry-cleaned one time): 2 kg · f/cm^2 | bursting strength percentage of variation ([5]; dry-cleaned one time): 0% | softness ([5]; dry-cleaned one time): 2.45 cm | softness percentage of variation ([5]; dry-cleaned one time): −6.84% | bursting strength ([5]; dry-cleaned two times): 12 kg · f/cm^2 | bursting strength percentage of variation ([5]; dry-cleaned two times): 0% | softness ([5]; dry-cleaned two times): 3 cm | softness percentage of variation ([5]; dry-cleaned two times): 14.07%
